Values from PubChem BioAssay AID1259282 (Sanger Institute, 2017).
Assay: 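Kinase knock-downs that work with targeted colorectal cancer drugs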 (primary screen). Cells: DIFI human colorectal cancer cell line. Reagents: siRNA pool against human genes. Treatment: anchor drug at a mild dose (BYL719 1 µM, cetuximab 5 µg/ml, trametinib 10 nM) or DMSO vehicle; exposure time not given. Measurement: 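Robust z-score and replicate-mean viability versus non-targeting pool without drug, plus a synergy score for each low-dose anchor drug (BYL719, cetuximab, trametinib)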. Reading the numbers: robust z-score, knock-down alone: higher = more viable cells than typical knock-down; viability, knock-down alone: higher = more viable cells. Units: viability, knock-down alone in fraction of control. Active means: 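Essential when the robust z-score of the knock-down without drug falls below -3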. Meaning of the calls: active = essential (knock-down alone, z below -3); inactive = not essential.
The deposit covers 794 reagents; shown is a part drawn at random. Over the whole deposit, 11 (1.4%) are marked active. 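Calls flag knock-downs that lower viability without drug; drug synergy appears only in the synergy scores; exposure time not stated.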 Unmarked entries are inactive. Viability is capped at 1. Not all columns of the deposit are shown. No sequences are given here. The record does not give: the amount of reagent, the time to read-out.

Depletion of BRWD1 (bromodomain and WD repeat domain containing 1) resulted in: robust z-score, knock-down alone 0.116; viability, knock-down alone 0.913.
EPHB1 (EPH receptor B1) showed robust z-score, knock-down alone -0.37; viability, knock-down alone 0.842.
Silencing of IP6K1 (inositol hexakisphosphate kinase 1) came out at: robust z-score, knock-down alone 0.715; viability, knock-down alone 1.
After knock-down of TNK2 (tyrosine kinase non receptor 2), the record shows robust z-score, knock-down alone 0.595; viability, knock-down alone 0.983.
Against MAPK14 (mitogen-activated protein kinase 14), the entry reads robust z-score, knock-down alone 0.715; viability, knock-down alone 1.
After knock-down of WNK2 (WNK lysine deficient protein kinase 2), the record shows robust z-score, knock-down alone 0.715; viability, knock-down alone 1.
CSNK2A1 (casein kinase 2 alpha 1) scored robust z-score, knock-down alone 0.715; viability, knock-down alone 1.
Against PRKAG1 (protein kinase AMP-activated non-catalytic subunit gamma 1), the values are robust z-score, knock-down alone -0.189; viability, knock-down alone 0.869.
Against EIF2AK3 (eukaryotic translation initiation factor 2 alpha kinase 3), the entry reads robust z-score, knock-down alone 0.715; viability, knock-down alone 1.
CDK8 (cyclin dependent kinase 8) scored robust z-score, knock-down alone 0.715; viability, knock-down alone 1.
NTRK1 (neurotrophic receptor tyrosine kinase 1) gave robust z-score, knock-down alone -0.463; viability, knock-down alone 0.829.
After knock-down of HUS1 (HUS1 checkpoint clamp component), the record shows robust z-score, knock-down alone 0.715; viability, knock-down alone 1.
After knock-down of ETNK2 (ethanolamine kinase 2), the screen gave robust z-score, knock-down alone -1.45; viability, knock-down alone 0.685.
PIM2 (Pim-2 proto-oncogene, serine/threonine kinase) showed robust z-score, knock-down alone -0.983; viability, knock-down alone 0.753.
Silencing of EPHB4 (EPH receptor B4) resulted in: robust z-score, knock-down alone 0.659; viability, knock-down alone 0.992.
Against DNMT3A (DNA methyltransferase 3 alpha), the values are robust z-score, knock-down alone 0.715; viability, knock-down alone 1.
For FOXP1 (forkhead box P1) the deposit lists robust z-score, knock-down alone -0.858; viability, knock-down alone 0.772.
After knock-down of IRAK4 (interleukin 1 receptor associated kinase 4), the record shows robust z-score, knock-down alone 0.715; viability, knock-down alone 1.
Depletion of EPHA10 (EPH receptor A10) came out at: robust z-score, knock-down alone -1.84; viability, knock-down alone 0.629.
For JAK2 (Janus kinase 2), the entry reads robust z-score, knock-down alone 0.715; viability, knock-down alone 1.
Silencing of PKLR (pyruvate kinase L/R) resulted in: robust z-score, knock-down alone 0.47; viability, knock-down alone 0.965.
Knock-down of TTBK1 (tau tubulin kinase 1) resulted in: robust z-score, knock-down alone 0.714; viability, knock-down alone 1.
After knock-down of MAPK15 (mitogen-activated protein kinase 15), the screen gave robust z-score, knock-down alone 0.715; viability, knock-down alone 1.
After knock-down of MAP4K3 (mitogen-activated protein kinase kinase kinase kinase 3), the screen gave robust z-score, knock-down alone 0.715; viability, knock-down alone 1.
For CAMKK1 (calcium/calmodulin dependent protein kinase kinase 1), the values are robust z-score, knock-down alone 0.715; viability, knock-down alone 1.
After knock-down of RPS6KA1 (ribosomal protein S6 kinase A1), the screen gave robust z-score, knock-down alone 0.715; viability, knock-down alone 1.
Depletion of IP6K3 (inositol hexakisphosphate kinase 3) gave: robust z-score, knock-down alone -1.15; viability, knock-down alone 0.728.
Depletion of PKIB (cAMP-dependent protein kinase inhibitor beta) gave: robust z-score, knock-down alone 0.233; viability, knock-down alone 0.93.
